Data taken from doi:10.1101/2025.04.25.650293.
Read-outs that look alike come from different tables or passages of the source. These are yes or no findings as the source states them, for the method shown. In cells and extracts the contact can be indirect. A yes stands for co-enrichment or nearness to the bait. Other partners may have been found.

Sequences of proteins named here, by UniProt entry; tags and fusion partners are left off.
UniProt Q92769: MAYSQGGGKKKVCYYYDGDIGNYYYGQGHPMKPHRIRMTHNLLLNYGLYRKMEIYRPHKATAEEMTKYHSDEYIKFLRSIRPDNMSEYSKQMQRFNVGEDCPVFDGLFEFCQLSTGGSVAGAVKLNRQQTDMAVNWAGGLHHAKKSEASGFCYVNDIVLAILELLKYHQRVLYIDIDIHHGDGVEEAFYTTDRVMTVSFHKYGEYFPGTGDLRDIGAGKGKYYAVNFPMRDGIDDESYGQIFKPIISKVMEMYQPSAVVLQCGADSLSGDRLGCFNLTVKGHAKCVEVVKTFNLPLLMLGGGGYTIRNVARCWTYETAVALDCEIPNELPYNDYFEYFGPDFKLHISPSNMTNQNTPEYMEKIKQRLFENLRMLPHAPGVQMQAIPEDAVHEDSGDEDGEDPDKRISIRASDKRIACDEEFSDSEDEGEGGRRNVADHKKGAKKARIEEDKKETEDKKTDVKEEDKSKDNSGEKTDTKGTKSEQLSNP
UniProt Q13547: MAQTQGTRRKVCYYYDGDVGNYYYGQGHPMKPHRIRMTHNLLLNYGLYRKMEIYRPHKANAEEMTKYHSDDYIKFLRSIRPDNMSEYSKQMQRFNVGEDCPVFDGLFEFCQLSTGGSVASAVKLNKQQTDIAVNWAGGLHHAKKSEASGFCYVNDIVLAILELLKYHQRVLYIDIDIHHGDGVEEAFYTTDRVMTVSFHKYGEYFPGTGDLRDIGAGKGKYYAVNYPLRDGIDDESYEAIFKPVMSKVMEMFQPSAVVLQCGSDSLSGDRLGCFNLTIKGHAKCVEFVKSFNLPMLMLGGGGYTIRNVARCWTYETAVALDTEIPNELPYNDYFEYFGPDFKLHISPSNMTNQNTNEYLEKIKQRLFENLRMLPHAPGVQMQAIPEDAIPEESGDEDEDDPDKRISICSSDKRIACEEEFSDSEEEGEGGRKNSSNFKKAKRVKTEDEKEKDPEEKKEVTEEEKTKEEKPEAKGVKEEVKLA

T1: ELMSAN1 (human (endogenous in 143B)) (UniProt Q6PJG2)
T1 sequence: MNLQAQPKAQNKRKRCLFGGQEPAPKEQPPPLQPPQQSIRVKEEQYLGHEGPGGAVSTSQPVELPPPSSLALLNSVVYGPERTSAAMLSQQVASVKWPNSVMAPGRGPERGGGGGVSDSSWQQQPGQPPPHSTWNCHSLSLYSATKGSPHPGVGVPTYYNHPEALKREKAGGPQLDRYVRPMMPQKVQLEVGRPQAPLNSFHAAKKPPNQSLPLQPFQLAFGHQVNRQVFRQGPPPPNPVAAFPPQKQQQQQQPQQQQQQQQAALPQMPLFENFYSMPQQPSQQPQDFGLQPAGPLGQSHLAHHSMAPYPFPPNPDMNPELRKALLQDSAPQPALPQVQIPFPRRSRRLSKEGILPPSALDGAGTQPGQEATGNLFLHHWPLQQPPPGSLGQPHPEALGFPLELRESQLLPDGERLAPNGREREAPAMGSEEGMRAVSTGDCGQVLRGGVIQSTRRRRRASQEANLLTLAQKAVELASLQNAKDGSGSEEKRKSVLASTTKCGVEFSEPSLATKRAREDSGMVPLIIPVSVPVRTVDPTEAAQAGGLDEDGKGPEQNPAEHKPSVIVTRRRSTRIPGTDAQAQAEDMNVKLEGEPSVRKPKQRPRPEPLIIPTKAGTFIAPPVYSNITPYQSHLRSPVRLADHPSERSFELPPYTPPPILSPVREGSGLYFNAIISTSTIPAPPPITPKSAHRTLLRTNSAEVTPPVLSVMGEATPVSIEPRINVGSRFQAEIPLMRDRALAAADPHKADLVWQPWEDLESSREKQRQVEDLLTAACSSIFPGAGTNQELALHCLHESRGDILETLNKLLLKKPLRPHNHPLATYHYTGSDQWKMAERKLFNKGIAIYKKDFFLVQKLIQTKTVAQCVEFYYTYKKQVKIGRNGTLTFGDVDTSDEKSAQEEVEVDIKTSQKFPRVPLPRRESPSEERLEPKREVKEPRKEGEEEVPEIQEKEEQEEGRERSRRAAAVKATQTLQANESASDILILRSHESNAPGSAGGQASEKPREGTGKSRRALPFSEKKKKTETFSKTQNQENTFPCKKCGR


Tests used:
[1] = target: T1, ELMSAN1 (human (endogenous in 143B)); assay: affinity purification with mass spectrometry
[2] = target: T1, ELMSAN1 (human (endogenous in 143B)); assay: affinity purification with mass spectrometry; remark: listed apart in the source

| binding [1] | binding [2] | Molecule |
| --- | --- | --- |
| binds |  | HDAC2 (from UniProt Q92769 1-488) |
| binds |  | HDAC1 (from UniProt Q13547 1-482) |
|  | binds | DLAT (dihydrolipoamide S-acetyltransferase, the PDC E2 subunit) (protein, UniProt P10515 87-647) SLPPHQKVPLPSLSPTMQAGTIARWEKKEGDKINEGDLIAEVETDKATVGFESLEECYMAKILVAEGTRDVPIGAIICITVGKPEDIEAFKNYTLDSSAAPTPQAAPAPTPAATASPPTPSAQAPGSSYPPHMQVLLPALSPTMTMGTVQRWEKKVGEKLSEGDLLAEIETDKATIGFEVQEEGYLAKILVPEGTRDVPLGTPLCIIVEKEADISAFADYRPTEVTDLKPQVPPPTPPPVAAVPPTPQPLAPTPSAPCPATPAGPKGRVFVSPLAKKLAVEKGIDLTQVKGTGPDGRITKKDIDSFVPSKVAPAPAAVVPPTGPGMAPVPTGVFTDIPISNIRRVIAQRLMQSKQTIPHYYLSIDVNMGEVLLVRKELNKILEGRSKISVNDFIIKASALACLKVPEANSSWMDTVIRQNHVVDVSVAVSTPAGLITPIVFNAHIKGVETIANDVVSLATKAREGKLQPHEFQGGTFTISNLGMFGIKNFSAIINPPQACILAIGASEDKLVPADNEKGFDVASMMSVTLSCDHRVVDGAVGAQWLAEFRKYLEKPITMLL |
